Results deposited as PubChem BioAssay AID1259254 (NCATS, 2017)
Purpose: 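Finding genes that stop cells copying their DNA twice in one cycle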 (primary screen). Cells: human HCT116 colorectal cancer cells. Reagents: single siRNA against human genes. Timing: 3 days. Detection: 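Imaged Hoechst DNA stain sorts each cell into a cycle phase by DNA amount; per plate, G2 fraction set to 0% for non-targeting and 100% for GMNN siRNA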. Reading the numbers: G2 robust z-score: higher = more G2 cells, more excess DNA replication. Rule for the call: 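Active siRNAs have a G2 robust z of 5 or more median absolute deviations over the median, which in these data means about 38% or higher of GMNN control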.
Shown is a random part of about 59,000 reagents tested. Over the whole deposit, about 1,550 (2.6%) were called active. 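G2 share is only a proxy for re-replication; each gene was hit by three separate siRNAs, and active genes were retested.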 Entries without a mark were called inactive. Reagents against one gene are numbered here. Not all columns of the deposit are shown. Not stated in the record: the amount of reagent.

G2 robust z-score, by target gene and reagent
HNF4G (hepatocyte nuclear factor 4 gamma): #1 -0.625; #2 4.24; #3 1.42
CCL28 (C-C motif chemokine ligand 28): #1 -0.787; #2 -1.03; #3 0.156
NUAK2 (NUAK family kinase 2): #1 0.561; #2 3.01; #3 2.18
FBXO21 (F-box protein 21): #1 -1.37; #2 2.57; #3 0.945
NAGLU (N-acetyl-alpha-glucosaminidase): #1 -0.246; #2 -0.116; #3 0.632
CGRRF1 (cell growth regulator with ring finger domain 1): #1 -0.996; #2 -0.417; #3 -0.5
TNNI2 (troponin I2, fast skeletal type): #1 -0.654; #2 2.29; #3 -1.01
LINC00460 (long independently transcribed non-coding RNA 460): #1 0.784; #2 0.111; #3 -1.08
PGRMC1 (progesterone receptor membrane component 1): #1 0.602; #2 -0.601; #3 -0.39
NBAS (NBAS subunit of NRZ tethering complex): #1 -0.73; #2 0.153; #3 -0.0878
OR5AS1 (olfactory receptor family 5 subfamily AS member 1): #1 0.38; #2 -0.339; #3 0.988
H4C1 (H4 clustered histone 1): #1 0.629; #2 -0.0665; #3 -0.429
MUC3B (mucin 3B, cell surface associated): #1 1.71; #2 0.43; #3 -0.387; #4 -0.327; #5 0.549; #6 0.0992
ZNF775 (zinc finger protein 775): #1 -0.38; #2 1.39; #3 -0.219
ABCA12 (ATP binding cassette subfamily A member 12): #1 -0.281; #2 -0.194; #3 0.17

Not a retest: entries from further up.
G2 robust z-score, by target gene and reagent
ZNF775 (zinc finger protein 775): #2 1.39; #3 -0.219
ABCA12 (ATP binding cassette subfamily A member 12): #1 -0.281; #2 -0.194; #3 0.17
